The results in this text go back to PMC7862700.

Amino acid sequences for entries named in this document (tags omitted). A change or cut given only in a name is not applied to a line headed by its entry.
UniProt P41212: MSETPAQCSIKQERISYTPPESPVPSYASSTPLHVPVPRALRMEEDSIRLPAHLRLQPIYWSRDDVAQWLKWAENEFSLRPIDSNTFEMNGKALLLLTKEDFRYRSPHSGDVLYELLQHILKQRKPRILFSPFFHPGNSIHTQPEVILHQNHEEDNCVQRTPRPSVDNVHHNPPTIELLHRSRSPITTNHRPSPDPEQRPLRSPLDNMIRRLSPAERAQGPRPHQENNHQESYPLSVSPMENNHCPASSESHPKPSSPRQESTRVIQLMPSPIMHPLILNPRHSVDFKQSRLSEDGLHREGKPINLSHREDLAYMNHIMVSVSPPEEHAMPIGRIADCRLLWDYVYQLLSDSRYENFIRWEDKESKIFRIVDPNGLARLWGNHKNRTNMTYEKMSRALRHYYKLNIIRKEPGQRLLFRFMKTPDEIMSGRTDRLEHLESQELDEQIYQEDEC

The list shows a part of the results, in another mix than the full data. At the low end of the ranking the order means little.

The target in this experiment is ETV6 (UniProt P41212). The experiment in a line: DAPPL (digital affinity profiling via proximity ligation, sequencing). Particulars: 10 mM Tris-HCl pH 7.5, 50 mM NaCl, 1 mM DTT, 4% glycerol, room temperature, 30 min; GST-TFs on glutathione beads, 16-mer random dsDNA library, 0.1% …; high values mean tight binding; double strand, one strand shown; scale: fold enrichment (6-mer frequency, TF over GST control).
In the case of CTAAAT, the binding signal was 1.3. With AGATCT the figure was 0.882.

In turn, CGCGCG registered a binding signal of 0.961. Consider CTAGCA, for which the binding signal turned out to be 1.18. With ACATAA the figure was 1.08; with GTTTGC, 1.02; with TCTGCG, 1.14. In turn, GCTAGT yielded a binding signal of 0.973. For TACCTA, the binding signal was determined as 1.29. The result for CTGTCT reads 1.32; that for GCCTAA, 1.13.

Regarding AGTTTC, the binding signal was 1.29. In turn, TAATAT showed a binding signal of 1.23. The result for CCCACT reads 1.37; that for TGAATA, 1.08. With TAACCA the figure was 1.04; with TTGTTG, 1.07. The result for CGCGAT reads 1.05; that for CCTTCC, 2.74; that for TGAACA, 1.21. As for ATGGTC, the binding signal is 1.52.

For ACCGGC, the binding signal was 1.31.

With TGTTCG, the binding signal was 0.996. With GTCTCC the figure was 1.51; with CGATGG, 1.33. With TAGAAT, the binding signal stood at 1.15.

On to CCACTA, for which the binding signal came out at 1.07.

For GCACAT, the binding signal came to 1.14. With TTTGTC the figure was 1.17; with TGTGAT, 0.956. With GCCCCG, the binding signal was found to be 1.09.

GCGATA showed a binding signal of 0.98.

Regarding CACCTA, the binding signal amounted to 1.02.

GGGTTT showed a binding signal of 1.07. With GCCTCT, the binding signal is 1.35. The result for CGCACT reads 1.25; that for ATGCGA, 1.23. With ATATTC the figure was 1.32; with AGCTCA, 1.1.
